From paper PMC7862700
The list shows a part of the results, in another mix than the full data. At the low end of the ranking the order means little.

target: SPI1 (UniProt P17947); experiment: DAPPL (digital affinity profiling via proximity ligation, sequencing); conditions: 10 mM Tris-HCl pH 7.5, 50 mM NaCl, 1 mM DTT, 4% glycerol, room temperature, 30 min; GST-TFs on glutathione beads, 16-mer random dsDNA library, 0.1% …; high values mean tight binding; double strand, one strand shown; scale: fold enrichment (6-mer frequency, TF over GST control)

Sequence	binding signal
CCCAGA	0.847
CCATAC	1.18
GGATCA	0.838
CACCGA	0.987
CTCATC	1.21
AGTAAT	1.17
CAGCTC	0.941
GGATTC	0.975
TGTGAT	0.961
CAACGA	0.989
AACAAG	1.04
TTTCAT	1.14
CAAACG	0.991
ATGTGC	1.06
GTTCGT	0.936
GGTGGT	0.991
ACGATT	1.31
AAGGTT	0.952
TCCCAT	1.28
CAACTT	1.69

Some of the entries so far, as labelled records.
TGTGAT
  binding signal: 0.961
CAACGA
  binding signal: 0.989
AACAAG
  binding signal: 1.04

Next part

Sequence	binding signal
GGTTAC	0.947
ACCCCA	1.08
TGATAA	1.05
AGACTC	0.906
TTAGGA	0.909
GCGAAG	0.821
TGTCAG	0.974
GCGCCC	0.997
TGGGCG	0.941
CCTAGG	0.929
CATCAA	0.973
TCCGCG	1.3
AACCGG	1.7
AGCAAC	0.965
GTTGAA	0.854
CCTCAG	1.17
GGCTGC	1.01
GCCCGG	0.904
GATCCC	1.11
